The supplement of paper PMC11732987, “Enantioselective OTUD7B fragment discovery through chemoproteomics screening and high-throughput optimisation” (Communications Chemistry, 2025)
The list shows a part of the results. The data scatter; read single values as rough.

Sequences of proteins named here, by UniProt entry; tags and fusion partners are left off. A change or cut given only in a name is not applied to a line headed by its entry.
UniProt Q02952: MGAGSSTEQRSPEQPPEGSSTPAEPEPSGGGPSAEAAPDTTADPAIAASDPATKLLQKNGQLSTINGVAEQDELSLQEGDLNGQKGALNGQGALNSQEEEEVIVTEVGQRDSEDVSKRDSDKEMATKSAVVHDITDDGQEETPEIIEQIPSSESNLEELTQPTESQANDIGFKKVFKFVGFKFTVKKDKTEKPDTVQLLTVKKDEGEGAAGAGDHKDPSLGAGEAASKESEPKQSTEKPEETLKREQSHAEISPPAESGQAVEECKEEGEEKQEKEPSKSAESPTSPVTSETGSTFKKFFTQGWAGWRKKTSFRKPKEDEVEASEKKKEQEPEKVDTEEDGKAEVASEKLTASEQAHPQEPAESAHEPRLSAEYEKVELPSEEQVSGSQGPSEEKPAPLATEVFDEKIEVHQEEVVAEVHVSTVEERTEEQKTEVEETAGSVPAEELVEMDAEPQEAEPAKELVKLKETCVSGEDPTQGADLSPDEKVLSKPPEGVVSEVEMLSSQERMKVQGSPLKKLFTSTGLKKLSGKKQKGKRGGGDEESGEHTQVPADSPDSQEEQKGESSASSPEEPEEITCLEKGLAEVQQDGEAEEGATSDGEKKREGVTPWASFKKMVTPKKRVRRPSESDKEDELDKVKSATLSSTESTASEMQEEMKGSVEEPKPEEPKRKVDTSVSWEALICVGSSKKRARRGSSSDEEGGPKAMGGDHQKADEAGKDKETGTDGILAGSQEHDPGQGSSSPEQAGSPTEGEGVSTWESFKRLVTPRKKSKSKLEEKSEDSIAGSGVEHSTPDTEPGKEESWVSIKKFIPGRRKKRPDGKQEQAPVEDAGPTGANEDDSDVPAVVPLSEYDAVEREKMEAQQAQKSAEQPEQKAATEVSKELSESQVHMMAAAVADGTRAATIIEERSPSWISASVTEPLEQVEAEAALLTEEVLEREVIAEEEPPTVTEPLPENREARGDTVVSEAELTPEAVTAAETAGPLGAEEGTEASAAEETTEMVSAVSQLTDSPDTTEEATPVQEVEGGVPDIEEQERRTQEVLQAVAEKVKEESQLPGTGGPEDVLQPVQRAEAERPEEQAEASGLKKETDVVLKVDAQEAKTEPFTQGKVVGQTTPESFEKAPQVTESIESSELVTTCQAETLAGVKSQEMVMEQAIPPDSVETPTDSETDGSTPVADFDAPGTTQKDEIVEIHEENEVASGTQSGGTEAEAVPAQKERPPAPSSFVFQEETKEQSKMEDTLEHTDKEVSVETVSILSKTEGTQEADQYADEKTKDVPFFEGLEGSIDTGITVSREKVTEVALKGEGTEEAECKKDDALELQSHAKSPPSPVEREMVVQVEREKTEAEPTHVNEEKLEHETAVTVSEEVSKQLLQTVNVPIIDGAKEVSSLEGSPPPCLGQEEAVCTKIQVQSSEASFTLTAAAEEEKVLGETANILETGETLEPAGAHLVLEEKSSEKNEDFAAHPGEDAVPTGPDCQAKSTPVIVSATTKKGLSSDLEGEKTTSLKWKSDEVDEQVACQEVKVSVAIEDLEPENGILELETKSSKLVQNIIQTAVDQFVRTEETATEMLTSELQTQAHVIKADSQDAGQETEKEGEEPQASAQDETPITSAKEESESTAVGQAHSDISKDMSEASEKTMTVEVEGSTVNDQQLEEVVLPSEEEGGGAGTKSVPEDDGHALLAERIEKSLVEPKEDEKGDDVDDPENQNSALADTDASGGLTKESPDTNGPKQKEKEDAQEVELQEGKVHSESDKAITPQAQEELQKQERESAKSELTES

Target: T1, AKAP12 C265 (UniProt Q02952)
T1 sequence (whole entry): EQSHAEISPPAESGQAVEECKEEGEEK
Assay: log2 mean competition ratio of IA-DTB cysteine labelling (DMSO/compound) (log2 ratio); higher = stronger cysteine engagement by compound
Conditions: 50 µM; treatment time: 4 h; cell line lysate: HEK293T
Experimental: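 IA-DTB competitive cysteine chemoproteomics in HEK293T RIPA lysate. Lysates were treated with compound 29 or 30 at 50 or 200 µM for 4 h, then IA-DTB (500 µM, 1 h), trypsin-digested, NeutrAvidin-enriched and analysed by diaPASEF. Competition ratio = intensity DMSO / intensity compound (n=4 treated, n=64 DMSO); binding: mean log2 CR ≥ 1 and p ≤ 0.05 plus QC filters. Target is the cysteine site.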

Row | Compound | log2 mean competition ratio
1 | O=C(CCl)N[C@@H]1CCCc2ccccc21 | -0.342
2 | O=C(CCl)N[C@H]1CCCc2ccccc21 | -0.214

Same assay, conditions: 200 µM; treatment time: 4 h; cell line lysate: HEK293T

Row | Compound | log2 mean competition ratio
3 | O=C(CCl)N[C@@H]1CCCc2ccccc21 | -0.156
4 | O=C(CCl)N[C@H]1CCCc2ccccc21 | -0.299
